These are yes or no findings as the source states them, for the method shown. Binding seen in cells or lysates may run through a third protein. Some results given as binding are weak or reduced against the parent protein; the word gives no strength.
Biological target: MCM2 (endogenous, 293T) (human (endogenous in 293T)) (UniProt P49736)
Assay: co-IP; anti-MCM2 antibody and protein A/G beads, lysate of wild-type or MCM2-2A mutant 293T cells, 200 mM NaCl, 0.5% NP-40; IgG as negative control

The chains behind the UniProt entries cited, without tags or fusion partners.
UniProt P49736: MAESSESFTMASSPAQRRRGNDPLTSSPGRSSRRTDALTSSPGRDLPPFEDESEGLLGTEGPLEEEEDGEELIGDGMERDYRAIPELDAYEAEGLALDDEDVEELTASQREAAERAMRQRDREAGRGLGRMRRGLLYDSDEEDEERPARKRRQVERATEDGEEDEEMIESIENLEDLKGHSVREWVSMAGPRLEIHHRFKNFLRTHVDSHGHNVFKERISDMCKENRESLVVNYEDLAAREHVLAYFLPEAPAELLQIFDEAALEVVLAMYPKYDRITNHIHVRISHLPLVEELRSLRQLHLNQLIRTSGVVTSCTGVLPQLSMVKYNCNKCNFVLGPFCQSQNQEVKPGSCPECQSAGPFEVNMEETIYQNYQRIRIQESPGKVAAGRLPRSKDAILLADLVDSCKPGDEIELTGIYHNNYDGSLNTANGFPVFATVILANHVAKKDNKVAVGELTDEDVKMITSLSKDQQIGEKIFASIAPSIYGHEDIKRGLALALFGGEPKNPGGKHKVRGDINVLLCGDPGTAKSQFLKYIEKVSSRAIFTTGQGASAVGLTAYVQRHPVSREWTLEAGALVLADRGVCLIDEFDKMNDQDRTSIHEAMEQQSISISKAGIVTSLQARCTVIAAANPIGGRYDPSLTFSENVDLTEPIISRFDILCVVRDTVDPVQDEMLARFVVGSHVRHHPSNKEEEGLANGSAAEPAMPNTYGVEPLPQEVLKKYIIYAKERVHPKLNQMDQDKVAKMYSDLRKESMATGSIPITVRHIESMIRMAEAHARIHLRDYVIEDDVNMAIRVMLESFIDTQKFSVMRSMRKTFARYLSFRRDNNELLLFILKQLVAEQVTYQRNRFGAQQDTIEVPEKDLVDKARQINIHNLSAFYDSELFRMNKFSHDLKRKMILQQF

B1: POLD3 (endogenous, 293T) (protein, UniProt Q15054 1-466)
chain: MADQLYLENIDEFVTDQNKIVTYKWLSYTLGVHVNQAKQMLYDYVERKRKENSGAQLHVTYLVSGSLIQNGHSCHKVAVVREDKLEAVKSKLAVTASIHVYSIQKAMLKDSGPLFNTDYDILKSNLQNCSKFSAIQCAAAVPRAPAESSSSSKKFEQSHLHMSSETQANNELTTNGHGPPASKQVSQQPKGIMGMFASKAAAKTQETNKETKTEAKEVTNASAAGNKAPGKGNMMSNFFGKAAMNKFKVNLDSEQAVKEEKIVEQPTVSVTEPKLATPAGLKKSSKKAEPVKVLQKEKKRGKRVALSDDETKETENMRKKRRRIKLPESDSSEDEVFPDSPGAYEAESPSPPPPPSPPLEPVPKTEPEPPSVKSSSGENKRKRKRVLKSKTYLDGEGCIVTEKVYESESCTDSEEELNMKTSSVHRPPAMTVKKEPREERKGPKKGTAALGKANRQVSITGFFQRK
- binding: binds
